Hit rate of the full screen: of about 360,000 compounds, about 9,100 (2.5%) were called active. Inconclusive results, whose numbers are uncertain, are shown with a selection of clear calls. Cut-off read from the data, not from the text of the source: active = max response below about -50%; inconclusive = no clear call, values can overlap the other calls; inactive = above that.
target: D(3) dopamine receptor (Homo sapiens) (UniProt P35462); assay: qHTS of D3 Dopamine Receptor Antagonist: qHTS; conditions: D3R cells, DiscoveRx beta-arrestin luminescence, antagonist mode; hits give low values
Procedure, shortened: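 Cells expressing the human receptor were seeded at 1500 cells/well, incubated overnight at 37 degrees C in 5% CO2, then exposed to library compounds with dopamine controls for 90 minutes at 37 degrees C before luminescent detection.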
% is set by controls: 0 for no effect and ±100 for the full control effect.

Chains of the proteins cited; added tags and fusions are not shown.
UniProt P35462, whole entry, looked up: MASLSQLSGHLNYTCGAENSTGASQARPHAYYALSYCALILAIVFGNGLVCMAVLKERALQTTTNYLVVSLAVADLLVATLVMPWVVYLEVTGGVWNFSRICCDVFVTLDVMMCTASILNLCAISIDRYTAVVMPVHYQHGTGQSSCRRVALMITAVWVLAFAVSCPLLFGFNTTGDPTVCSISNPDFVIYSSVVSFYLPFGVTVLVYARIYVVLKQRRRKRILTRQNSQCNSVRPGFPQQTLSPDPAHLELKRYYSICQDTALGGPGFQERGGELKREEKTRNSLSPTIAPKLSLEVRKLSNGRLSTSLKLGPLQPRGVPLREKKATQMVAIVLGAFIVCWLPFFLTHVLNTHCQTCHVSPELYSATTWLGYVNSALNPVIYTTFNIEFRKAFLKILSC

Structure (SMILES)	max response, negative = inhibition
CC(C)=CCN1CCN(Cc2cccc3c2OCO3)CC1CCO (stereo not given)	inconclusive: -32.3%
CC1CN(C(=O)CS(=O)(=O)Cc2ccccc2)CC(C)O1 (stereo not given)	inconclusive: -35.4%
O=[N+]([O-])c1ccc(N2CCN(c3ccc(F)cc3)CC2)cn1	inactive: 1.91%
C=C(C)COc1ccc(-c2[nH]ncc2Oc2cccc(OC)c2)c(O)c1	active: -56.5%
CCC(C(=O)NCc1ccco1)n1nc(C)n2c(cc3occc32)c1=O (stereo not given)	inactive: -13%
Cc1ccc(-c2nc3c(C)cc(Br)cn3c2Cc2cccc(F)c2)cc1	active: -57.3%
CC1=CC2C(C(O)CC3(C)C2CC(C)C32OCOC23COCO3)C2(C)C/C(=C\O)C(=O)C=C12 (stereo not given)	inconclusive: -34.2%
Cc1ccc(OC(=O)COc2ccccc2C)cc1	inactive: 0.61%
N#CCCNCC1(c2ccccc2)CCCC1	active: -54.4%
CN=C1SC(CC(=O)Nc2ccc(F)cc2F)C(=O)N1/N=C/c1ccc(OC(F)F)c(OC)c1 (stereo not given)	inactive: 0.773%
COC(=O)c1ccc(C(=S)N2CCCCC2)cc1	inconclusive: -40.7%
O=C(Cc1cccc2ccccc12)Nc1c(F)cccc1F	inactive: -20.7%
O=[N+]([O-])c1ccc(Cl)cc1CN1CCCCCC1	inactive: -3.56%
COc1ccccc1N1CCN(Cc2cn[nH]c2-c2ccc(F)cc2)CC1	active: -66.8%
COc1ccc(OC)c(S(=O)(=O)n2cnc3ccccc32)c1	inactive: -14.1%
COc1ccc(C(=O)N2CCN(c3nc4cc(C)ccc4cc3C#N)CC2)c(OC)c1	inactive: 48.6%
CCn1nc(NS(=O)(=O)c2ccccc2)c2cc3cccc(C)c3nc21	inconclusive: -38.7%
CC(C)C[C@H](NC(=O)Nc1cccc(C(F)(F)F)c1)C(=O)O	inconclusive: -34.7%
Cc1ccc(C(NC(=O)C2CCN(CCOc3ccccc3)CC2)c2ccccn2)cc1 (stereo not given)	active: -69.8%
CCN(CC)CCNC(=O)c1ccc(NC(=O)Cc2ccc(OC)c(S(=O)(=O)N3CCOCC3)c2)cc1	inactive: -24.2%
CCOC(=O)/C(C#N)=C1/SC(CC)C(=O)N1c1ccc(C)cc1 (stereo not given)	active: -57.2%
O=c1[nH]c2c(c(=O)n1Cc1ccccc1)CCC2	inconclusive: -35.7%
CC1CC(=O)NN=C1c1ccc(NCCO)c([N+](=O)[O-])c1 (stereo not given)	inactive: -13.8%
Cc1cc(C)c(C#N)c(SCC(=O)Nc2ccc3c(c2)OCO3)n1	inconclusive: -33.3%
COc1ccc(C(CNC(=O)C2COc3ccccc3O2)N2CCCC2)cc1 (stereo not given)	inconclusive: -40.1%

A second format for part of the listing above:
Structure (SMILES) | max response, negative = inhibition
CC(C)=CCN1CCN(Cc2cccc3c2OCO3)CC1CCO (stereo not given) | inconclusive: -32.3%
CC1CN(C(=O)CS(=O)(=O)Cc2ccccc2)CC(C)O1 (stereo not given) | inconclusive: -35.4%
O=[N+]([O-])c1ccc(N2CCN(c3ccc(F)cc3)CC2)cn1 | inactive: 1.91%
C=C(C)COc1ccc(-c2[nH]ncc2Oc2cccc(OC)c2)c(O)c1 | active: -56.5%
CCC(C(=O)NCc1ccco1)n1nc(C)n2c(cc3occc32)c1=O (stereo not given) | inactive: -13%

— PubChem BioAssay AID652054 (National Center for Advancing Translational Sciences (NCATS), 2013)
